We go through 66 compounds from PubChem BioAssay AID901 (National Center for Advancing Translational Sciences (NCATS), 2007).

Structures are written as SMILES. This is one part of the list. The main result of the screen is listed elsewhere. These columns were measured beside it and carry no call. Compounds called inactive in the main read-out are mostly missing here. Potencies come from curve fits of mixed quality, noted in brackets.

A short description of the experiment: qHTS Assay for Identifying the Cell-Membrane Permeable IMPase Inhibitors. The conditions noted are these: CHO-M1 cells, IP1 accumulation, HTRF TR-FRET ratio; measured here: donor channel 620 nm AC50. (In general: Quantitative high-throughput screening tests each substance at several concentrations.)
For the compound `Cc1ccc(C(C)C)c(OCCNC(=S)Nc2cccc3ccccc23)c1`, the AC50 was 1.58 µM [falling, partial curve].

Take `N#Cc1cc(Sc2ccccn2)c(Sc2ccccn2)cc1C#N`: the AC50 was 31.6 µM [rising, single point].

In the case of `COc1cccc(CNC(=O)Nc2cccs2)c1`, the AC50 is 0.398 µM [falling, full curve, poor fit].

With `C(=N\c1c(-c2ccccc2)nc2n1CCS2)/c1ccccc1`, the AC50 was 4.47 µM [falling, full curve, poor fit].

With `Cc1cc(/C=C2\SC(=S)NC2=O)c(C)n1C1CC1`, the concentration at half-maximal activity (AC50) was 31.6 µM [falling, single point].

With `Cc1cc(-c2ccc(N=Nc3ccc4c(S(=O)(=O)O)cc(S(=O)(=O)O)c(N)c4c3O)c(C)c2)ccc1N=Nc1ccc2c(S(=O)(=O)O)cc(S(=O)(=O)O)c(N)c2c1O`, the AC50 is 6.31 µM [falling, partial curve, poor fit].

Regarding `CCCOC(=O)c1c(N)sc2c1CCC2`, the AC50 was 7.94 µM [rising, partial curve, poor fit].

As for `CCn1ncc(Br)c1C(=O)Nc1cc(C(=O)OC)ccc1C(=O)OC`, the AC50 is 31.6 µM [rising, single point].

For the compound `Cc1ccc(S(=O)(=O)N2CCCN(c3nc4cc(C)ccc4cc3C#N)CC2)cc1`, the AC50 is 31.6 µM [rising, single point].

Consider `Cc1ccc(/C(N)=N/OC(=O)CCc2ccccc2)cc1`, for which the AC50 is 0.398 µM [rising, full curve, poor fit].

Consider `CCN=C1SC(C(=O)NCCc2ccccc2)CC(=O)N1CC` (stereo unspecified), for which the AC50 was 0.00501 µM [rising, full curve, poor fit].

`CCOc1ccc2nc(NCCCNS(=O)(=O)c3ccc(C)cc3)c(C#N)cc2c1`: the AC50 was 0.02 µM [falling, full curve].

Consider `CN(c1ccccc1C(=O)O)S(C)(=O)=O`, for which the AC50 is 31.6 µM [falling, single point].

As to `Cc1cc2nc(C)n(CCCNC(=O)Nc3ccccc3)c2cc1C`, the AC50 was 10 µM [falling, partial curve].

On to `CC1CCC(C(C)C)C(OC(=O)COC(=O)c2ccc(=O)[nH]c2)C1` (stereo unspecified), for which the AC50 is 0.0316 µM [falling, full curve, poor fit].

`O=C(/C=C/c1ccc(O)c(O)c1)OC(Cc1ccc(O)c(O)c1)C(=O)O` (stereo unspecified): the AC50 was 20 µM [falling, partial curve].

In the case of `CS(=O)(=O)N(CC(=O)NCCC1=CCCCC1)c1ccc2c(c1)OCO2`, the AC50 was 5.01 µM [rising, single point].

Take `Cc1ccc2[nH]c3c(c2c1)CN(C)CC3`: the AC50 was 25.1 µM [falling, single point].

For `CCCCCOC(=O)C1=C(C)NC(=O)NC1c1ccccc1OCC` (stereo unspecified), the AC50 is 2 µM [rising, single point].

Take `CCOC(=O)c1ccc2[nH]c3c(c2c1)CN(C)CC3`: the AC50 was 0.0794 µM [falling, full curve, poor fit].

For the compound `COc1ccc(-c2ccc(N)[n+](CCCC(=O)O)n2)cc1`, the AC50 is 6.31 µM [rising, single point].

As to `CCOc1ccccc1C(=O)Nc1cccc(-c2nnc(-c3ccccc3)o2)c1`, the half-maximal activity concentration (AC50) was 0.0126 µM [rising, full curve, poor fit].

Take `Cc1ccc(NC(=O)Cn2nc(-c3ccc(Cl)cc3)c3ccccc3c2=O)cc1`: the AC50 is 14.1 µM [rising, partial curve].

Regarding `COc1ccccc1N(CC(=O)NCCSc1ccccc1)S(=O)(=O)c1ccc(C)cc1`, the AC50 was 5.01 µM [falling, full curve, poor fit].

Consider `CCCCc1nc2n[nH]c(N)c2c2c1CCC2`, for which the AC50 was 35.5 µM [rising, single point].

As to `CSc1nc2sc3c(c2c(=O)n1-c1ccc(C)cc1)CCCC3`, the AC50 is 11.2 µM [rising, single point].

In the case of `CC1(C)OC(c2ccccc2)=C/C(=C/C=Nc2ccccc2)O1`, the half-maximal activity concentration (AC50) was 0.2 µM [rising, single point].

Turning to `COC(=O)NNC(=O)c1cccc(C)c1`, the AC50 is 0.126 µM [falling, full curve].

As for `CCOC(=O)c1ccc(NS(=O)(=O)c2cc(-c3nnnn3CC)ccc2OC)cc1`, the AC50 is 31.6 µM [falling, single point].

As to `CCc1ccc(CNC(=O)c2cc3c(C)nc4ccccc4c3o2)cc1`, the AC50 is 35.5 µM [falling, single point].

In the case of `O=[N+]([O-])c1ccc(Cl)c(/C=N/NC(=S)Nc2ccccc2)c1`, the AC50 was 0.158 µM [falling, full curve, poor fit].

With `COc1ccc(/C(O)=C2/C(=O)C(=O)N(c3nc(C)c(C)s3)C2c2ccco2)cc1` (stereo unspecified), the AC50 is 15.8 µM [rising, single point].

Consider `O=C1NCCCC2c3cc(O)c4ccccc4c3OC12N1CCCCC1` (stereo unspecified), for which the AC50 was 3.98 µM [falling, full curve].

For the compound `O=c1[nH]c2ccc(S(=O)(=O)N3CCC(Cc4ccccc4)CC3)cc2o1`, the half-maximal activity concentration (AC50) was 6.31 µM [rising, single point].

As to `CCCc1nnc(NC(=O)C(CC)Sc2nnc3c4ccccc4n(C)c3n2)s1` (stereo unspecified), the AC50 was 0.708 µM [rising, single point].

Consider `CCn1ncc(/C=C/C(=O)NCc2cnn(C)c2C)c1C`, for which the AC50 was 6.31 µM [falling, full curve, poor fit].

For `CCn1cc(C(=O)NCC2CCCO2)c(=O)c2cc(S(=O)(=O)N3CCCCC3)ccc21` (stereo unspecified), the AC50 was 0.1 µM [falling, full curve].

As to `CCOC(=O)C1CCCN(C(=O)CN2C(=O)COc3ccc(C(C)(C)C)cc32)C1` (stereo unspecified), the AC50 is 6.31 µM [rising, full curve, poor fit].

`CCCOc1ccc(C(=O)Nc2ccc(NC(=O)c3ccccc3)c(C)c2)cc1`: the AC50 is 0.562 µM [falling, full curve].

As for `COCCCN1C(=O)C(=O)/C(=C(/O)c2ccc(OCC(C)C)cc2C)C1c1cccnc1` (stereo unspecified), the AC50 was 31.6 µM [rising, single point].

Consider `CNc1ccc(Br)cc(C(=O)/C=C/c2cccc(OC)c2OC)c1=O`, for which the AC50 was 31.6 µM [falling, single point].

Turning to `Cc1cc(C)nc(SCc2nc3nc(C)cc(C)n3c2Br)n1`, the AC50 was 0.01 µM [rising, full curve, poor fit].

For `CCOc1ccc2nc(SCc3cccc(C)c3)nc(C)c2c1`, the AC50 was 3.98 µM [rising, single point].

`COc1ccc(OC)c(C2/C(=C(/O)c3cnn(-c4ccccc4)c3C)C(=O)C(=O)N2CCN(C)C)c1` (stereo unspecified): the AC50 was 0.562 µM [falling, full curve].

For the compound `CC(C)C1CC(O)(C2(O)CCCCC2)ON1` (stereo unspecified), the AC50 is 28.2 µM [falling, single point].

On to `COc1ccc(-c2csc(Nc3cccnc3)n2)cc1OC`, for which the AC50 is 10 µM [falling, partial curve, poor fit].

For `N#CC(C(=O)Nc1ccccc1)=C1Nc2ccccc2N1`, the concentration at half-maximal activity (AC50) was 1.26 µM [falling, full curve, poor fit].

On to `Cc1ccc(NC(=O)Cn2c(=O)n(CC(=O)NCCc3ccccc3)c(=O)c3ccccc32)cc1C`, for which the half-maximal activity concentration (AC50) is 25.1 µM [rising, single point].

Take `COCCCn1[nH]c2c3c(ccc2c1=O)C(=O)c1ccccc1C3=O`: the AC50 is 15.8 µM [falling, partial curve].

Turning to `COc1ccc(NC(C)=O)cc1NC(=O)CSc1nnc(-c2ccccc2)n1N`, the half-maximal activity concentration (AC50) was 35.5 µM [falling, single point].

As for `CCOC(=O)c1csc(NC(=O)CSc2nnnn2-c2ccc3c(c2)OCCO3)n1`, the AC50 was 0.1 µM [falling, single point].

On to `O=C(NCCC1=CCCCC1)C1CCN(Cc2cnn(-c3ccccc3)c2-n2cccc2)CC1`, for which the AC50 was 0.0158 µM [rising, full curve, poor fit].

Consider `COCCNC(=O)C(c1ccccc1C)N(C(=O)Cn1nnc2ccccc21)c1cccnc1` (stereo unspecified), for which the AC50 was 31.6 µM [falling, single point].

On to `Cc1ccccc1CSCCNC(=O)c1ccc(Cl)c(S(=O)(=O)N2CCOCC2)c1`, for which the AC50 was 0.251 µM [falling, full curve, poor fit].

On to `COc1cccc(C(=O)Nc2ncc3c(n2)CC(c2ccc(OC)cc2OC)CC3=O)c1` (stereo unspecified), for which the AC50 was 6.31 µM [rising, partial curve].

Take `COc1cccc(-c2ccc(-c3noc(-c4ccccc4Br)n3)c(OC)n2)c1`: the AC50 is 3.16 µM [rising, single point].

As to `O=C1CCc2cc(S(=O)(=O)N3CCN(c4cccc(Cl)c4)CC3)ccc2N1`, the AC50 was 0.251 µM [falling, full curve].

Consider `CCOC(=O)CC(NC(=O)c1ccco1)c1ccc(C)cc1` (stereo unspecified), for which the AC50 is 0.316 µM [falling, full curve].

As for `CC(=O)NS(=O)(=O)c1cccnc1Nc1ccc(Cl)cc1`, the AC50 is 0.00794 µM [falling, full curve, poor fit].

Consider `NC(=O)C1CCN(CC(=O)Nc2ccccc2Sc2ccc(Cl)cc2)CC1`, for which the AC50 is 6.31 µM [falling, single point].

Turning to `CCOc1ncccc1C(=O)OCC(=O)c1cccs1`, the concentration at half-maximal activity (AC50) was 0.1 µM [falling, full curve, poor fit].

With `COc1ccc(OC)c(S(=O)(=O)NCCc2ccccc2)c1`, the AC50 is 0.501 µM [falling, partial curve, poor fit].

In the case of `Cc1cc(C)c2c3c(sc2n1)C(=O)N(C)CC(=O)N3`, the half-maximal activity concentration (AC50) was 0.01 µM [rising, full curve, poor fit].

As for `Cc1cc(NC(=O)C2CCCN(S(=O)(=O)c3ccc(Br)s3)C2)ccc1Br` (stereo unspecified), the AC50 is 0.112 µM [falling, full curve, poor fit].

For the compound `COC(=O)[C@H](Cc1ccccc1)NC(=O)N1CC(C)OC(C)C1` (stereo partly specified), the AC50 is 10 µM [falling, partial curve, poor fit].

Take `O=c1oc2c3c4c(cc2c2c1CCC2)OCCN4CCC3`: the AC50 is 0.00501 µM [falling, full curve, poor fit].

In general, AC50 refers to the concentration giving half of the maximal activity seen.
